Laboratory results from the supplement of paper PMC12819154, “High-throughput peptide-centric local stability assay extends protein–ligand identification to membrane proteins, tissues and bacteria” (Nature Structural & Molecular Biology, 2025).
The other results are listed elsewhere or left out. Most values lie at the level of the controls, where differences are scatter.

The chains behind the UniProt entries cited, without tags or fusion partners. Where a name states a change or a piece, a line headed by the entry shows the natural chain unless it says otherwise.
UniProt Q9D5V5: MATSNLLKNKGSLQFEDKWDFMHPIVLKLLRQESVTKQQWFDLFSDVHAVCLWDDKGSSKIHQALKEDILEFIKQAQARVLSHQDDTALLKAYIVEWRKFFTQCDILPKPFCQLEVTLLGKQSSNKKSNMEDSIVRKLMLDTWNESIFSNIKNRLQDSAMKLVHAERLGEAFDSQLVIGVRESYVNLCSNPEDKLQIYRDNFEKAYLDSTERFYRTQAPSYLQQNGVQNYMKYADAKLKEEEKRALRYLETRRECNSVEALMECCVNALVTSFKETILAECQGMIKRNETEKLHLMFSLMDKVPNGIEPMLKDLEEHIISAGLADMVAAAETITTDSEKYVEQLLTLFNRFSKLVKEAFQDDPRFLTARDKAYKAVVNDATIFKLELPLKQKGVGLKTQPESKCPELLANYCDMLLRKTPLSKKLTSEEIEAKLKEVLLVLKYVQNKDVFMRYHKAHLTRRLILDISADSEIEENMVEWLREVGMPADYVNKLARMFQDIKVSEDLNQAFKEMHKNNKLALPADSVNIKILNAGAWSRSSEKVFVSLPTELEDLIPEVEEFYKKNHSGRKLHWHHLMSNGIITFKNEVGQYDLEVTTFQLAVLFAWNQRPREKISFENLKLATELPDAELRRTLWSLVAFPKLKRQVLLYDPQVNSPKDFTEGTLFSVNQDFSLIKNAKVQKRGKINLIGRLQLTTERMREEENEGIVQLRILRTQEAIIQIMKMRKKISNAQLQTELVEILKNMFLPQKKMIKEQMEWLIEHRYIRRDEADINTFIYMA
UniProt Q9D1E6: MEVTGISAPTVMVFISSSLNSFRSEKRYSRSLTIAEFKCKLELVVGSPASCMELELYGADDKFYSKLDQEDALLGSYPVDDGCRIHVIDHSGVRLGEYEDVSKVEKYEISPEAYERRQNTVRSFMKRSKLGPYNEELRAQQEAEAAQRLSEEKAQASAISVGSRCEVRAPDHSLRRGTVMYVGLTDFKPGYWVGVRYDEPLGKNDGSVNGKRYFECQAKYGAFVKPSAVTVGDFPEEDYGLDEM
UniProt Q9D2I5: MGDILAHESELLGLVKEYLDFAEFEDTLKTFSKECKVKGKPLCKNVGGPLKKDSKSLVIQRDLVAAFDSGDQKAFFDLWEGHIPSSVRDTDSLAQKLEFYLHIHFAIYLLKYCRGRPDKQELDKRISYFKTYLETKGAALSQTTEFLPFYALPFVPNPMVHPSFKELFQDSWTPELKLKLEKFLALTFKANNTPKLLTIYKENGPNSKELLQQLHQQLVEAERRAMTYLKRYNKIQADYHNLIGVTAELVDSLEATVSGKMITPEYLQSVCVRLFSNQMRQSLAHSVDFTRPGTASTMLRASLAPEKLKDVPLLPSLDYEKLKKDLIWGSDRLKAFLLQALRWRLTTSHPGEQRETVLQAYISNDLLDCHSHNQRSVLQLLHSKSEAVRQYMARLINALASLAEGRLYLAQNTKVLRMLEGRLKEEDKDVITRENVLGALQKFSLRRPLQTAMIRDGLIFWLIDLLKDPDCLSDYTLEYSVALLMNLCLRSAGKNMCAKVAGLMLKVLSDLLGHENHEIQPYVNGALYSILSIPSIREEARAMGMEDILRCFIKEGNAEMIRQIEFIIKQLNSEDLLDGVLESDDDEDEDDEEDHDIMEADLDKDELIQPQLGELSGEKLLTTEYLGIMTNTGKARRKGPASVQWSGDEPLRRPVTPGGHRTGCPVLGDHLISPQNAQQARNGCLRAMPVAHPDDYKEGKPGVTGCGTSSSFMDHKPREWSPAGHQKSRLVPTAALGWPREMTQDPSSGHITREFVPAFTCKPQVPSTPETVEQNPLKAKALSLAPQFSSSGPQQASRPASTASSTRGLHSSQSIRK
UniProt Q9D211: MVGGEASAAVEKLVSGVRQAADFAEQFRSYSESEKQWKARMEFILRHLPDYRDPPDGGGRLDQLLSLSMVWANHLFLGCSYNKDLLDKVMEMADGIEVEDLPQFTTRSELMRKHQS
UniProt Q9D8F1: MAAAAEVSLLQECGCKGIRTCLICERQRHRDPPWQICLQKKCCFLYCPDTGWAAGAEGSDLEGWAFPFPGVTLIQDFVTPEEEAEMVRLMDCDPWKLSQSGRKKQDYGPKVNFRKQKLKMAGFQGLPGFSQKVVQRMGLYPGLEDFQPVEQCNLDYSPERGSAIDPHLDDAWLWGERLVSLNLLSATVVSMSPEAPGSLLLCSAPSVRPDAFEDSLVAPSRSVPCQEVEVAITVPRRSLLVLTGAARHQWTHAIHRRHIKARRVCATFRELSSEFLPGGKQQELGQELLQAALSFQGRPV

What follows are targets tested with CN[C@@H]1C[C@H]2O[C@@](C)([C@@H]1OC)n1c3ccccc3c3c4c(c5c6ccccc6n2c5c31)C(=O)NC4 [staurosporine] (assay: log2 fold change of tryptic peptide abundance, ligand vs vehicle (limited proteolysis) (log2 ratio); higher = more trypsin-susceptible (destabilized)). Conditions: ligand concentration: 20 uM; sample: mouse liver crude lysate; replicate design: treated separately.
“UniProt Q9D5V5 (peptide sequence: LATELPDAELRR, peptide start residue: 621)” gave a log2 fold change of -0.638. “UniProt Q9D1E6 (peptide sequence: SKLGPYNEELR, peptide start residue: 128)” showed a log2 fold change of 0.151. “UniProt Q9D2I5 (peptide sequence: AFLLQALR, peptide start residue: 335)” was tested, and the log2 fold change was -0.043. “UniProt Q9D211 (peptide sequence: VGGEASAAVEK, peptide start residue: 2)” gave a log2 fold change of -0.0136. For “UniProt Q9D8F1 (peptide sequence: SLLVLTGAAR, peptide start residue: 238)”, the log2 fold change was 0.122.
